Measured values: patent publication US20190374627A1, “TARGET PEPTIDES FOR CANCER THERAPY AND DIAGNOSTICS” (priority 2016, published 2019)

What was measured:
[1] = test system: HCC tumor tissue, adjacent liver tissue, HepG2 cells; assay: Identification of MHC class I-bound phosphopeptides by W6/32 immunoprecipitation, IMAC and HPLC-ESI-MS/MS; parameters: species or system human
melanoma = assay: Presence of the phosphopeptide in previously analyzed melanoma samples; parameters: key: The presence of phosphopeptides in previously analyzed samples including leukemia, colorectal cancer, melanoma, ovarian cancer, breast cancer, and esophageal cancer is indicated by ✓
colorectal cancer = assay: Presence of the phosphopeptide in previously analyzed colorectal cancer samples; parameters: key: The presence of phosphopeptides in previously analyzed samples including leukemia, colorectal cancer, melanoma, ovarian cancer, breast cancer, and esophageal cancer is indicated by ✓
leukemia = assay: Presence of the phosphopeptide in previously analyzed leukemia samples; parameters: key: The presence of phosphopeptides in previously analyzed samples including leukemia, colorectal cancer, melanoma, ovarian cancer, breast cancer, and esophageal cancer is indicated by ✓

| Substance | Found on ([1]; sample (HCC tumor T, adjacent liver N, HepG2) on which the phosphopeptide was identified) | Found on other cancers ([1]; other malignancies on which the MHC-I-pP was also identified) | Copies/cell ([1]; presentation of HCC-associated HLA-A*0201-restricted MHC-I-pP per cell) | Melanoma (melanoma) | Colorectal (colorectal cancer) | Leukemia (leukemia) |
| --- | --- | --- | --- | --- | --- | --- |
| RRDsLQKPGL: MHC-I-pP identified for serine/threonine protein kinases LATS1 and LATS2 (RRDSLQKPGL; phosphoserine; (4)...(4) The amino acid at this position is optionally phosphorylated; listed as Homo sapiens) | LL981T | – | – | – | – | – |
| ALDsGASLLHL: RIPK4 phosphopeptide, HLA-A*0201 (ALDSGASLLHL; phosphoserine; (4)...(4) The amino acid at this position is optionally phosphorylated; listed as Homo sapiens) | – | Ovarian Ca, Hematological Ca, Breast | 0.1 - 0.4 Copies/cell | – | – | – |
| 155 (RPRANSGGVDL; (6)...(6) The amino acid at this position is optionally phosphorylated; listed as Homo sapiens) [compound 155] | – | – | – | ✓ | ✓ | ✓ |
| 97 (KPASPKFIVTL; (4)...(4) The amino acid at this position is optionally phosphorylated; listed as Homo sapiens) [compound 97] | – | – | – | ✓ | ✓ | ✓ |
| 118 (MPRQPSATRL; (6)...(6) The amino acid at this position is optionally phosphorylated; listed as Homo sapiens) [compound 118] | – | – | – | ✓ | ✓ | ✓ |
| 208 (SPKSPGLKA; (4)...(4) The amino acid at this position is optionally phosphorylated; listed as Homo sapiens) [compound 208] | – | – | – | ✓ | ✓ | ✓ |
| 146 (RPKTPPVVI; (4)...(4) The amino acid at this position is optionally phosphorylated; listed as Homo sapiens) [compound 146] | – | – | – | ✓ | ✓ | ✓ |
| 315 (RAKSPISLK; (4)...(4) The amino acid at this position is optionally phosphorylated; listed as Homo sapiens) [compound 315] | – | – | – | ✓ | ✓ | ✓ |
| 94 (GPRSPKAPP; (4)...(4) The amino acid at this position is optionally phosphorylated; listed as Homo sapiens) [compound 94] | – | – | – | ✓ | ✓ | ✓ |
| 339 (AENSPTRQQF; (4)...(4) The amino acid at this position is optionally phosphorylated; listed as Homo sapiens) [compound 339] | – | – | – | ✓ | ✓ | ✓ |
| 109 (KPYSPLASL; (4)...(4) The amino acid at this position is optionally phosphorylated; listed as Homo sapiens) [compound 109] | – | – | – | ✓ | ✓ | ✓ |
| 328 (RTASPPPPPK; (4)...(4) The amino acid at this position is optionally phosphorylated; listed as Homo sapiens) [compound 328] | – | – | – | ✓ | – | ✓ |
| 101 (KPRRFSRSL; (6)...(6) The amino acid at this position is optionally phosphorylated; (8)...(8) The amino acid at this position is optionally phosphorylated; listed as Homo sapiens) [compound 101] | – | – | – | ✓ | ✓ | ✓ |
| 239 (KRLSPAPQL; (4)...(4) The amino acid at this position is optionally phosphorylated; listed as Homo sapiens) [compound 239] | – | – | – | ✓ | ✓ | ✓ |
| 334 (RVYSPYNHR; (4)...(4) The amino acid at this position is optionally phosphorylated; listed as Homo sapiens) [compound 334] | – | – | – | ✓ | ✓ | ✓ |
| 162 (RPRPHSAPSL; (6)...(6) The amino acid at this position is optionally phosphorylated; listed as Homo sapiens) [compound 162] | – | – | – | ✓ | ✓ | ✓ |
| 304 (IYQYIQSRF; (4)...(4) The amino acid at this position is optionally phosphorylated; listed as Homo sapiens) [compound 304] | – | – | – | ✓ | ✓ | ✓ |
| 322 (RLSSPISKR; (4)...(4) The amino acid at this position is optionally phosphorylated; listed as Homo sapiens) [compound 322] | – | – | – | ✓ | ✓ | ✓ |

| Substance | Found on ([1]; sample (HCC tumor T, adjacent liver N, HepG2) on which the phosphopeptide was identified) | Found on other cancers ([1]; other malignancies on which the MHC-I-pP was also identified) | Copies/cell ([1]; presentation of HCC-associated HLA-A*0201-restricted MHC-I-pP per cell) | Melanoma (melanoma) | Colorectal (colorectal cancer) | Leukemia (leukemia) |
| --- | --- | --- | --- | --- | --- | --- |
| 124 (RPAKSMDSL; (5)...(5) The amino acid at this position is optionally phosphorylated; listed as Homo sapiens) [compound 124] | – | – | – | ✓ | ✓ | ✓ |
| 309 (KLRSPFLQK; (4)...(4) The amino acid at this position is optionally phosphorylated; listed as Homo sapiens) [compound 309] | – | – | – | ✓ | – | ✓ |
| 372 (KRASFAKSV; (4)...(4) The amino acid at this position is optionally phosphorylated; listed as Homo sapiens) [compound 372] | – | – | – | ✓ | – | ✓ |
| 213 (SPRSPSTTYL; (6)...(6) The amino acid at this position is optionally phosphorylated; listed as Homo sapiens) [compound 213] | – | – | – | ✓ | ✓ | ✓ |
| 169 (RPRSAVLL; (4)...(4) The amino acid at this position is optionally phosphorylated; listed as Homo sapiens) [compound 169] | – | – | – | ✓ | ✓ | ✓ |
| 92 (GPRSASLLSL; (6)...(6) The amino acid at this position is optionally phosphorylated; listed as Homo sapiens) [compound 92] | – | – | – | ✓ | ✓ | ✓ |
| 160 (RPRIPSPIGF; (6)...(6) The amino acid at this position is optionally phosphorylated; listed as Homo sapiens) [compound 160] | – | – | – | ✓ | – | ✓ |
| 197 (RPVTPVSDL; (4)...(4) The amino acid at this position is optionally phosphorylated; listed as Homo sapiens) [compound 197] | – | – | – | ✓ | ✓ | ✓ |
| 125 (RPASAGAML; (4)...(4) The amino acid at this position is optionally phosphorylated; listed as Homo sapiens) [compound 125] | – | – | – | ✓ | ✓ | ✓ |
| 91 (GPRSASLL; (6)...(6) The amino acid at this position is optionally phosphorylated; listed as Homo sapiens) [compound 91] | – | – | – | ✓ | ✓ | ✓ |
| 316 (RILSGVVTK; (4)...(4) The amino acid at this position is optionally phosphorylated; listed as Homo sapiens) [compound 316] | – | – | – | ✓ | ✓ | ✓ |
| 279 (RRSSQSWSL; (4)...(4) The amino acid at this position is optionally phosphorylated; listed as Homo sapiens) [compound 279] | – | – | – | ✓ | ✓ | ✓ |
| 282 (RRYSPPIQR; (4)...(4) The amino acid at this position is optionally phosphorylated; listed as Homo sapiens) [compound 282] | – | – | – | ✓ | – | ✓ |
| 108 (KPVSPKSGTL; (4)...(4) The amino acid at this position is optionally phosphorylated; listed as Homo sapiens) [compound 108] | – | – | – | ✓ | – | ✓ |
| 142 (RPKLSSPAL; (6)...(6) The amino acid at this position is optionally phosphorylated; listed as Homo sapiens) [compound 142] | – | – | – | ✓ | ✓ | ✓ |
| 200 (RPYSPPFFSL; (4)...(4) The amino acid at this position is optionally phosphorylated; listed as Homo sapiens) [compound 200] | – | – | – | ✓ | – | ✓ |
| 86 (FPRRHSVTL; (6)...(6) The amino acid at this position is optionally phosphorylated; listed as Homo sapiens) [compound 86] | – | – | – | ✓ | ✓ | ✓ |
